Results are given in words; binding and its absence hold for the method and conditions named. In cells and extracts the contact can be indirect. A yes stands for co-enrichment or nearness to the bait. Other partners may have been found.

The chains behind the UniProt entries cited, without tags or fusion partners.
UniProt P57073: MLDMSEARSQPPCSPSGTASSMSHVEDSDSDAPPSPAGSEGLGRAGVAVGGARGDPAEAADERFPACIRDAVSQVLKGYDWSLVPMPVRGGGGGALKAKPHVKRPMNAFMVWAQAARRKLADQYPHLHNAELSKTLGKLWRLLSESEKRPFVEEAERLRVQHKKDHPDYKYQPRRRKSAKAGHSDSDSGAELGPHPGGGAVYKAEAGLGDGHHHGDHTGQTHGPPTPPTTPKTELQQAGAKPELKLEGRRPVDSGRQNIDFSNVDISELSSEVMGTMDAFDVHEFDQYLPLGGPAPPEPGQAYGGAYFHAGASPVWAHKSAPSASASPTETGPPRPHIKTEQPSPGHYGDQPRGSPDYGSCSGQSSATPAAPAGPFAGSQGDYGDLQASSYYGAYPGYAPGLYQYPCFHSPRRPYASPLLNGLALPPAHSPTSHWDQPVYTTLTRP
UniProt Q14258: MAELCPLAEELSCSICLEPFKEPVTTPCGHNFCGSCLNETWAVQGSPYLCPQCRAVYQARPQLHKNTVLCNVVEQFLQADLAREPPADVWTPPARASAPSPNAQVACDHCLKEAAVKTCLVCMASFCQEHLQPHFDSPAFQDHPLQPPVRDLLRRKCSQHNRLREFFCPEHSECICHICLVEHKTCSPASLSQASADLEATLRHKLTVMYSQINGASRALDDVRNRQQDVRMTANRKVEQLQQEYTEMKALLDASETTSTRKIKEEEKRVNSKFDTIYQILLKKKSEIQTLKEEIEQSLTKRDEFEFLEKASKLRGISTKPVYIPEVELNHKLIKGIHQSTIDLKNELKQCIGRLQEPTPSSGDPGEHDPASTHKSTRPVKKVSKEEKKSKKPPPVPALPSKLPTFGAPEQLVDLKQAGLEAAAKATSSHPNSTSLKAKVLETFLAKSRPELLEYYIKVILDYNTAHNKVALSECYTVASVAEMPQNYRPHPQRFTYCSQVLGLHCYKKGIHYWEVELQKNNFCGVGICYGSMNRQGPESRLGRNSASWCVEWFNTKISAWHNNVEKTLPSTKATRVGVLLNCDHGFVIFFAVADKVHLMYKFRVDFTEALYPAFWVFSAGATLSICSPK

The assay concerns the target SOX8 (human (endogenous in ligament fibroblasts from patients)) (UniProt P57073). The experiment in a line: affinity purification with mass spectrometry; antigen-antibody-bead complexes (Protein A + G magnetic beads) from protein lysates analysed by LC-MS/MS; cells and bait antibody not named for this experiment.

On to “TRIM25 (from UniProt Q14258 1-630) (enzyme)”, for which the binding entry is “binds”.

The record behind these values is PMC12412890.
